The results in this text go back to PMC5797633.

Sequences of proteins named here, by UniProt entry; tags and fusion partners are left off.
UniProt O95071: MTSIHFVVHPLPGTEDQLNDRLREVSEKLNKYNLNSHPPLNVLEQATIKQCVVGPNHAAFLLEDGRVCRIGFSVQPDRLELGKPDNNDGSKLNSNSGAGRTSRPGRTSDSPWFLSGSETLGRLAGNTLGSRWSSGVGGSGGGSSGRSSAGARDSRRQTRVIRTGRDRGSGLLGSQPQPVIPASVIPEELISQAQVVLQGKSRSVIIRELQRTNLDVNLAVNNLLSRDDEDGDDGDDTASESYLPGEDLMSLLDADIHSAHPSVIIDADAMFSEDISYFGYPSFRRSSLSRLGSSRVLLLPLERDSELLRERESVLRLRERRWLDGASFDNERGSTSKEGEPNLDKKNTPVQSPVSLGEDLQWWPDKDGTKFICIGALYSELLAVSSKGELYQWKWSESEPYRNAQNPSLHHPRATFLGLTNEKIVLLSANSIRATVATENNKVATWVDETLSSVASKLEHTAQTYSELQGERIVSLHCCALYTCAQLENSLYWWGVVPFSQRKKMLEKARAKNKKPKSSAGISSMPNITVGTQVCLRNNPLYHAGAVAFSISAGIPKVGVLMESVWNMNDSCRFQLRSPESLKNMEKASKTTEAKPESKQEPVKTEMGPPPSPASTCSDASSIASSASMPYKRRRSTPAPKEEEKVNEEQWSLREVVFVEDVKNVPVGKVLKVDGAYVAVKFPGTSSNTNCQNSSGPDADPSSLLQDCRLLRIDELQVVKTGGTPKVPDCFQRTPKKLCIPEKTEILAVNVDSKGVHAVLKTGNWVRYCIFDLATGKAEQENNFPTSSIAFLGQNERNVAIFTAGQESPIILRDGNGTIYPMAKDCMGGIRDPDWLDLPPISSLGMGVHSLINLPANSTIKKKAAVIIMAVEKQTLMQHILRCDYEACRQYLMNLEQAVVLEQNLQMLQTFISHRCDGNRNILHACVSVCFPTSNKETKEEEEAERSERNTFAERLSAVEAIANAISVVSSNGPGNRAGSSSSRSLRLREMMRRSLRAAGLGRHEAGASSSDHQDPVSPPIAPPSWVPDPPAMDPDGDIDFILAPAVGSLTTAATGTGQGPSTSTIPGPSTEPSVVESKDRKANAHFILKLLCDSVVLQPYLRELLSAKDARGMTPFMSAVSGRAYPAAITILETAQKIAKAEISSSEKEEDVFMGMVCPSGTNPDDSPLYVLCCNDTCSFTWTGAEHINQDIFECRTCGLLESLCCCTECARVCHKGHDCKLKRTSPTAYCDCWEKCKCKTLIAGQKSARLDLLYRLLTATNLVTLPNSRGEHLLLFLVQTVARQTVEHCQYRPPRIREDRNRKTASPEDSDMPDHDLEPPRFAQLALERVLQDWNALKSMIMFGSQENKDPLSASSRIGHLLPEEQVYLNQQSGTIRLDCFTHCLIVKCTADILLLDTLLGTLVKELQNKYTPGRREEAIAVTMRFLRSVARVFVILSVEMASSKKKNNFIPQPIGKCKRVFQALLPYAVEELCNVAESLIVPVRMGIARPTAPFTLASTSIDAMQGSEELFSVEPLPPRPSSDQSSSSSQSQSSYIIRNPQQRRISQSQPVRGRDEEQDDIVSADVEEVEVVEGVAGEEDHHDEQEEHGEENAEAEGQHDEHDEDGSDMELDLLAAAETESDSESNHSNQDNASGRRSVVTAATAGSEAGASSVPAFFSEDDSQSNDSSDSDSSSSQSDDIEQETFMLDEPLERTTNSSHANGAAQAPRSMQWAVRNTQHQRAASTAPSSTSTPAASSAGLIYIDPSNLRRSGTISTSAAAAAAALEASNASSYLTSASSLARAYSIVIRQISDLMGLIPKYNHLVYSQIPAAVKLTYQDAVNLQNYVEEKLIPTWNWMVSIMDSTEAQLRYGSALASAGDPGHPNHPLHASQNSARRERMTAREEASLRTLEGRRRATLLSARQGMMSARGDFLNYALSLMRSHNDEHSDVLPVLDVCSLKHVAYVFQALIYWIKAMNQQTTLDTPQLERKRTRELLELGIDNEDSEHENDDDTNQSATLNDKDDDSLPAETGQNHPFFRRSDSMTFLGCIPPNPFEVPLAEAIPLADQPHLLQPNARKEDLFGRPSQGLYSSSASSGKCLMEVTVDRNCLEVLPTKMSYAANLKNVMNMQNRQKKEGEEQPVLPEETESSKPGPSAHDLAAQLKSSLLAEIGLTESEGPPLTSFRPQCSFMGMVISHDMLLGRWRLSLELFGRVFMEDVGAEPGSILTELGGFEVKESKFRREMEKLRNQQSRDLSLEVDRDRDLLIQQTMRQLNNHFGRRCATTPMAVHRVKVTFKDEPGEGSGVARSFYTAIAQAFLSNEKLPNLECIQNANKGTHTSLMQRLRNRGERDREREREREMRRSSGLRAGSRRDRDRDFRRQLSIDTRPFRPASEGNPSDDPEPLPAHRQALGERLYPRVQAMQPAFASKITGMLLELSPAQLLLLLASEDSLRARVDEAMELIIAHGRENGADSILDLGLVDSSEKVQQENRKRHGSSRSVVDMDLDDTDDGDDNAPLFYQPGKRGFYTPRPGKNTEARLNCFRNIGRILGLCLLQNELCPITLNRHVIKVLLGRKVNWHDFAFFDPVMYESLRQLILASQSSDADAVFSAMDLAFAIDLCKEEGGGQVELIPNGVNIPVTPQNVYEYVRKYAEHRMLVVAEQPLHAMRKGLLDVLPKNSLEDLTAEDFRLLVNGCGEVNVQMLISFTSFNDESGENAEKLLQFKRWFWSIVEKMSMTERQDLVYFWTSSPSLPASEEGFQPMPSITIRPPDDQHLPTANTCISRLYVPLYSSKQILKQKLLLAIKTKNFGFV

No constants are given. Whether binding was seen depends on the method and setting. In cells and extracts the contact can be indirect. Some binding calls cover weakened binding; strength is not graded here.

Assay [1] addresses Flag-tagged UBR5 (pCMV-Tag2B-EDD) (UniProt O95071). Put plainly: co-IP.
The target of assay [2] is HBZ expressed in SLB-1 cells (HTLV-1-transformed T-cell line) (HTLV-1 (expressed in SLB-1)) (UniProt P0C746). As to the kind of experiment: co-IP; IP with rabbit anti-HBZ antiserum or control rabbit IgG and Protein G Dynabeads from lysates of T-cell lines (Jurkat-HBZ, SLB-1; 10 μM MG-132 for 20 h, NP-40 lysis buffer); immunoblot for UBR5 and HBZ.
For assay [3], the target named is S-tagged HBZ AD-BR2-BR1 (HTLV-1) (UniProt P0C746). As to the kind of experiment: pull-down; S-tag affinity pulldown on S beads overnight at 4°C from lysates of transfected HEK293T cells (10 μM MG-132 for 20 h, NP-40 lysis buffer, 25 mM NEM); immunoblot with anti-S-tag and anti-UBR5. (In general: Immunoblotting shows a protein as a band on a membrane.)
The target of assay [4] is S-tagged HBZ AD-BR2-BR1-BR3 (HTLV-1) (UniProt P0C746). Described as above.
The target of assay [5] is S-tagged HBZ (HTLV-1 basic leucine zipper factor), wild type (HTLV-1) (UniProt P0C746). Described as above.
Assay [6] has as its target S-tagged HBZ ΔbZIP (HTLV-1) (UniProt P0C746). Described as above.
The target of assay [7] is HBZ ectopically expressed in Jurkat-HBZ cells (HBZ-GFP chimeric protein) (HTLV-1) (UniProt P0C746). Put plainly: co-IP; IP with rabbit anti-HBZ antiserum or control rabbit IgG and Protein G Dynabeads from lysates of T-cell lines (Jurkat-HBZ, SLB-1; 10 μM MG-132 for 20 h, NP-40 lysis buffer); immunoblot for UBR5 and HBZ.

“untagged HBZ (pME-HBZ) (from UniProt P0C746-2 1-206)”: the binding result in assay [1] is listed as “binds”.

Take “UBR5 (endogenous in SLB-1 cells) (from UniProt O95071 1-2799) (enzyme)”: the binding entry in assay [2] is “binds”.

Take “Flag-tagged UBR5 (pCMV-Tag2B-EDD) (from UniProt O95071 1-2799) (enzyme)”: the binding entry in assay [3], in assay [4], in assay [5] and in assay [6] was “binds” each time.

Regarding “UBR5 (endogenous in Jurkat-HBZ cells) (from UniProt O95071 1-2799) (enzyme)”, the binding result in assay [7] is on record as “binds”.

Take “UBR5, E3 ubiquitin-protein ligase (endogenous in HEK293T) (from UniProt O95071 1-2799) (enzyme)”: the binding result in assay [5] is reported as “binds”.

Take “S-tagged HBZ (HTLV-1 basic leucine zipper factor), wild type (from UniProt P0C746-2 1-206)”: the binding result in assay [1] is “binds”.
